From patent EP0908183A1, “Dehydroepiandrosterone or derivatives thereof for increasing the content of hyaluronic acid in skin” (INSTITUTE FOR ADVANCED SKIN RESEARCH INC., priority 1997, dated 1999)
At least one compound was matched to its structure with a doubt left.

Tested on: content of hyaluronic acid in skin
Experiment: content of hyaluronic acid in skin of aging mice after application to dorsal skin
Type: in vivo
Details: concentration not given; tested simultaneously; aging mice Balb/c, 48 weeks old; Fig. 1
Description: Dehydroepiandrosterone (DHEA) as an ethanol solution at a concentration of 10^-1M was applied to skin of the dorsal part of aging mice (Balb/c, 48 weeks old, in each group consisting of 6 animals) for 5 weeks.
To evaluate the reproducibility of its efficacy, DHEA was applied in various concentrations of 10^-1, 10^-2 and 10^-3M to aging mice (Balb/c, 53 weeks, in each group consisting of 8 animals). Further, in order to see whether DHEA became effective only after it was metabolized to estrodiol, alimidex that inhibited aromatase, which is an enzyme for causing a conversion to estrogens, was administered simultaneously with DHEA. […] This means the concentration of DHEA can be lowered to a tenth of the initial value.

## CC1=C(/C=C/C(C)=C/C=C/C(C)=C/C(=O)O)C(C)(C)CCC1 [retinoic acid, reference compound]
  content of hyaluronic acid in skin: not effective at all
